Data as given in PubChem BioAssay AID1259308 (NCATS, 2017).

Screen: 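Candidate targets for better recombinant protein yield in mammalian cells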 (primary screen)
System: human HEK293 embryonic kidney cells stably expressing firefly luciferase (HEK-CMV-Luc2-Hygro)
Reagent: single siRNA against human genes, 0.8 pmol siRNA per well
Time to read-out: 72 h
Measured: 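Luciferase light (ONE-Glo) measured on one replicate plate set and viability (CellTiter-Glo) on the other, scaled to a negative control siRNA, with robust z-scores and luciferase per cell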
Scale: total luciferase, z-score and total luciferase, % of control: higher = more reporter protein produced; luciferase per cell, z-score: higher = more reporter output per viable cell; viable cells, % of control: higher = more viable cells
Active means: 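Active when the median/MAD z-score for overall luciferase is greater than 3; a gene was taken forward for validation with new siRNAs if at least two of its three siRNAs passed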
Meaning of the calls: active = raised luciferase; inactive = no rise
Shown is an unselected part of about 59,000 deposited reagents. Of all reagents, about 1,510 (2.6%) are marked active. 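Calls use total luciferase alone and ignore viability, so some active siRNAs may act by altering cell number.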 Reagents against one gene are numbered here.

| gene symbol | siRNA no. | total luciferase, z-score | total luciferase, % of control | luciferase per cell, z-score | viable cells, % of control | call |
| --- | --- | --- | --- | --- | --- | --- |
| SHFL (shiftless antiviral inhibitor of ribosomal frameshifting) | 1 | 0.00117 | 81.9 | -0.363 | 101 | inactive |
| SHFL (shiftless antiviral inhibitor of ribosomal frameshifting) | 2 | 0.265 | 87.2 | -0.435 | 109 | inactive |
| SHFL (shiftless antiviral inhibitor of ribosomal frameshifting) | 3 | 6.02 | 202 | 3.36 | 93 | active |
| CTSH (cathepsin H) | 1 | 0.136 | 84.6 | -0.146 | 98.2 | inactive |
| CTSH (cathepsin H) | 2 | -1.15 | 59 | -0.143 | 68.5 | inactive |
| CTSH (cathepsin H) | 3 | 0.0528 | 82.9 | -0.78 | 114 | inactive |
| CLIC4 (CLIC family member 4) | 1 | -0.495 | 72 | -0.964 | 104 | inactive |
| CLIC4 (CLIC family member 4) | 2 | 0.41 | 90 | 0.269 | 93.7 | inactive |
| CLIC4 (CLIC family member 4) | 3 | 0.445 | 90.7 | 0.615 | 86.2 | inactive |
| GSK3A (glycogen synthase kinase 3 alpha) | 1 | -0.154 | 78.8 | -0.836 | 110 | inactive |
| GSK3A (glycogen synthase kinase 3 alpha) | 2 | 0.315 | 88.1 | -0.153 | 103 | inactive |
| GSK3A (glycogen synthase kinase 3 alpha) | 3 | 0.182 | 85.5 | -0.492 | 109 | inactive |
| KIF3C (kinesin family member 3C) | 1 | -1 | 61.9 | -1.12 | 92.9 | inactive |
| KIF3C (kinesin family member 3C) | 2 | 0.829 | 98.4 | 0.901 | 86.7 | inactive |
| KIF3C (kinesin family member 3C) | 3 | -0.889 | 64.2 | -0.205 | 75.7 | inactive |
| SERF2 (small EDRK-rich factor 2) | 1 | 1.14 | 105 | 1.57 | 77.3 | inactive |
| SERF2 (small EDRK-rich factor 2) | 2 | 0.228 | 86.4 | 0.206 | 91.5 | inactive |
| SERF2 (small EDRK-rich factor 2) | 3 | 0.0784 | 83.4 | -0.0883 | 95.4 | inactive |
| S100A6 (S100 calcium binding protein A6) | 1 | 1.59 | 114 | 1.76 | 79.9 | inactive |
| S100A6 (S100 calcium binding protein A6) | 2 | -0.329 | 75.3 | -0.197 | 88.7 | inactive |
| S100A6 (S100 calcium binding protein A6) | 3 | -0.687 | 68.2 | -1.09 | 102 | inactive |
| ANKRD65 (ankyrin repeat domain 65) | 1 | -0.405 | 73.8 | 2.22 | 45.9 | inactive |
| ANKRD65 (ankyrin repeat domain 65) | 2 | 1.7 | 116 | 0.883 | 103 | inactive |
| ANKRD65 (ankyrin repeat domain 65) | 3 | 0.462 | 91.1 | 1.01 | 78 | inactive |
| TMEM260 (transmembrane protein 260) | 1 | -0.886 | 64.3 | -0.504 | 82 | inactive |
| TMEM260 (transmembrane protein 260) | 2 | 1.63 | 114 | 1.01 | 97.9 | inactive |
| TMEM260 (transmembrane protein 260) | 3 | -0.13 | 79.3 | -0.273 | 95.2 | inactive |
| GTF2A2 (general transcription factor IIA subunit 2) | 1 | 2.13 | 124 | 1.87 | 84.8 | inactive |
| GTF2A2 (general transcription factor IIA subunit 2) | 2 | 1.43 | 110 | 1.69 | 79 | inactive |
| GTF2A2 (general transcription factor IIA subunit 2) | 3 | 3.1 | 144 | 2.07 | 93 | active |
| NR3C1 (nuclear receptor subfamily 3 group C member 1) | 1 | -0.686 | 68.2 | -0.396 | 84.6 | inactive |
| NR3C1 (nuclear receptor subfamily 3 group C member 1) | 2 | -1.82 | 45.8 | -2.03 | 87.2 | inactive |
| NR3C1 (nuclear receptor subfamily 3 group C member 1) | 3 | 0.982 | 101 | 1.44 | 77.6 | inactive |
| C1QTNF12 (C1q and TNF related 12) | 1 | -0.34 | 75.1 | 0.0303 | 83.3 | inactive |
| C1QTNF12 (C1q and TNF related 12) | 2 | 3.58 | 153 | 2.33 | 92.6 | active |
| C1QTNF12 (C1q and TNF related 12) | 3 | -1 | 61.9 | -0.979 | 89.6 | inactive |
| ZNF564 (zinc finger protein 564) | 1 | 1.03 | 102 | 0.975 | 88.5 | inactive |
| ZNF564 (zinc finger protein 564) | 2 | 0.422 | 90.3 | 0.326 | 92.6 | inactive |
| ZNF564 (zinc finger protein 564) | 3 | -1.31 | 55.9 | -0.801 | 77.1 | inactive |
| ACCSL | 1 | -1.94 | 43.2 | -1.57 | 72.9 | inactive |
| ACCSL | 2 | -0.5 | 71.9 | -0.464 | 90.8 | inactive |
| ACCSL | 3 | -0.667 | 68.6 | -0.253 | 82 | inactive |
| WIPF3 (WAS/WASL interacting protein family member 3) | 1 | -1.29 | 56.3 | -1.14 | 84.8 | inactive |
| WIPF3 (WAS/WASL interacting protein family member 3) | 2 | -0.678 | 68.4 | -0.217 | 80.9 | inactive |
| WIPF3 (WAS/WASL interacting protein family member 3) | 3 | 1.25 | 107 | 1.88 | 72.7 | inactive |
| HOXD1 (homeobox D1) | 1 | 0.407 | 90 | 0.692 | 83.8 | inactive |
| HOXD1 (homeobox D1) | 2 | -0.0883 | 80.1 | 0.439 | 79.8 | inactive |
| HOXD1 (homeobox D1) | 3 | 0.164 | 85.1 | 0.0111 | 94.9 | inactive |
| FAM89A (family with sequence similarity 89 member A) | 1 | 0.656 | 94.9 | 0.00741 | 106 | inactive |
| FAM89A (family with sequence similarity 89 member A) | 2 | 0.621 | 94.2 | 0.0702 | 103 | inactive |
| FAM89A (family with sequence similarity 89 member A) | 3 | -1.73 | 47.5 | -1.79 | 84.9 | inactive |
| CXCL8 (C-X-C motif chemokine ligand 8) | 1 | -0.207 | 77.8 | -0.294 | 93.9 | inactive |
| CXCL8 (C-X-C motif chemokine ligand 8) | 2 | 0.804 | 97.9 | 1.65 | 70.8 | inactive |
| CXCL8 (C-X-C motif chemokine ligand 8) | 3 | 1.2 | 106 | 1.22 | 85.7 | inactive |
| ACSF2 (acyl-CoA synthetase family member 2) | 1 | 5.32 | 188 | 3.66 | 80 | active |
| ACSF2 (acyl-CoA synthetase family member 2) | 2 | 4.46 | 171 | 4.45 | 59.1 | active |
| ACSF2 (acyl-CoA synthetase family member 2) | 3 | -0.36 | 74.7 | -0.634 | 98.7 | inactive |

Ordered by “total luciferase, % of control” (high to low): 4 of the entries above
| gene symbol | siRNA no. | total luciferase, z-score | total luciferase, % of control | luciferase per cell, z-score | viable cells, % of control | call |
| --- | --- | --- | --- | --- | --- | --- |
| CLIC4 (CLIC family member 4) | 3 | 0.445 | 90.7 | 0.615 | 86.2 | inactive |
| CLIC4 (CLIC family member 4) | 2 | 0.41 | 90 | 0.269 | 93.7 | inactive |
| GSK3A (glycogen synthase kinase 3 alpha) | 2 | 0.315 | 88.1 | -0.153 | 103 | inactive |
| GSK3A (glycogen synthase kinase 3 alpha) | 1 | -0.154 | 78.8 | -0.836 | 110 | inactive |
